Source: publication PMC8857135
No constants are given. Whether binding was seen depends on the method and setting. In cells and extracts the contact can be indirect. Some results given as binding are weak or reduced against the parent protein; the word gives no strength.

Biological target: T1, TRX1 (human (endogenous in SH-SY5Y)), P10599
T1 chain: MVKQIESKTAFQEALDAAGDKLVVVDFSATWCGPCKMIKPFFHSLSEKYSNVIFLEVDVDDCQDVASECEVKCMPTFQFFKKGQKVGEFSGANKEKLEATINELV
Experiment: co-IP; SH-SY5Y cell lysates (RIPA buffer), immunoprecipitated with anti-TRX1 antibody or control IgG on protein A/G-agarose, overnight 4 C, blot for TXNIP; cells treated with MPP+ (1 mM) or MPP+ and MG132 (1 uM) for 24 h, with LncZFAS1 overexpression or knockout
Details: remark: other sources report otherwise

binding: binds
B1: TXNIP, Q9H3M7 1-391 (protein)
chain: MVMFKKIKSFEVVFNDPEKVYGSGEKVAGRVIVEVCEVTRVKAVRILACGVAKVLWMQGSQQCKQTSEYLRYEDTLLLEDQPTGENEMVIMRPGNKYEYKFGFELPQGPLGTSFKGKYGCVDYWVKAFLDRPSQPTQETKKNFEVVDLVDVNTPDLMAPVSAKKEKKVSCMFIPDGRVSVSARIDRKGFCEGDEISIHADFENTCSRIVVPKAAIVARHTYLANGQTKVLTQKLSSVRGNHIISGTCASWRGKSLRVQKIRPSILGCNILRVEYSLLIYVSVPGSKKVILDLPLVIGSRSGLSSRTSSMASRTSSEMSWVDLNIPDTPEAPPCYMDVIPEDHRLESPTTPLLDDMDGSQDSPIFMYAPEFKFMPPPTYTEVDPCILNNNVQ
